Source: patent publication US20260167681A1 (POSTECH RESEARCH AND BUSINESS DEVELOPMENT FOUNDATION, published 2026)
Results are given in words; binding and its absence hold for the method and conditions named. Some entries that bind do so weakly or less than the wild type.

Protein sequences, listed by entry. Tags and fused reporters are not part of them. Residues count along the entry.
UniProt P01012, residues 2-386: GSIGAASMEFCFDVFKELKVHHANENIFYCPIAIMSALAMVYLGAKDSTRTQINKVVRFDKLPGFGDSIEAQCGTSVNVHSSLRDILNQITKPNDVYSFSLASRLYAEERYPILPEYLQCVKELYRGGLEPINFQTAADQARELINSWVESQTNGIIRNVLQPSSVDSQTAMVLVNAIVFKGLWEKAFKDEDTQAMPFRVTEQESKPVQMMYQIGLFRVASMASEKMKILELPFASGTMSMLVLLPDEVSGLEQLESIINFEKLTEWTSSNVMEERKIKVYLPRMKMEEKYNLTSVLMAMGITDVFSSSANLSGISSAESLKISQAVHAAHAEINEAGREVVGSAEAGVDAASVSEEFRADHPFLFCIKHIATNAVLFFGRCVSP

Biological target: ovalbumin (OVA) (UniProt P01012)
Assay: zeta potential (DLS, Zetasizer) of ovalbumin/MAP-AP mixtures at weight ratios 2, 1 and 0.5

B1: adhesive adjuvant protein (MAP-AP; MAP-based Adjuvant Protein) (other)
chain: MAKPSYPPTYKAKPSYPPTYKAKPSYPPTYKAKPSYPPTYKAKPSYPPTYKAKPSYPPTYKPWSSEEYKGGYYPGNTYHYHSGGSYHGSGYHGGYKGKYYGKAKKYYYKYKNSGKYKYLKKARKYHRKGYKKYYGGGSSAKPSYPPTYKAKPSYPPTYKAKPSYPPTYKAKPSYPPTYKAKPSYPPTYKAKPSYPPTYKLGGGGSAKFVAAWTLKAAA
notes: Recombinant fusion protein made in E. coli; also called MAP-based Adhesive adjuvant protein
With B1 the binding was “binds”.
